This is an account of results in patent US5405760A, “Process for producing recombinant McrBC endonuclease and cleavage of methylated DNA” (New England Biolabs, Inc., priority 1992, dated 1995).

Negatives hold for the conditions tested.

This data set deals with McrBC endonuclease (McrBL + McrC) (Escherichia coli K-12). As to the kind of experiment: enzyme reaction in vitro. To be noted: 1 mM GTP, purified recombinant protein.

Regarding “AGGTTTACCGCAGCTGCCTCGCGCGTTTCGGTGATGACGGTGAAAACCTCTGACACATGCAGCTCCCGGAGACGGTCACAGC [82-nt AluI single strand]”, the functional effect result (5mC at AGmCT (regardless of methylation), Mg, single-stranded DNA) is “not active”.

Turning to “AGGTTTACCGCAGCTGCCTCGCGCGTTTCGGTGATGACGGTGAAAACCTCTGACACATGCAGCTCCCGGAGACGGTCACAGC (double strand) [82-bp AluI duplex, one m5C on one strand]”, the functional effect entry (5mC at one AGmCT site, one strand, Mg) is listed as “not active”.

Regarding “AGGTTTACCGCAGCTGCCTCGCGCGTTTCGGTGATGACGGTGAAAACCTCTGACACATGCAGCTCCCGGAGACGGTCACAGC (double strand) [82-bp AluI duplex, unmethylated]”, the functional effect entry (Mg) was “not active”.

As to “AGGTTTACCGCAGCTGCCTCGCGCGTTTCGGTGATGACGGTGAAAACCTCTGACACATGCAGCTCCCGGAGACGGTCACAGC (double strand) [82-bp AluI duplex, m5C at both AluI sites on both strands]”, under “5mC at AGmCT, both sites, both strands, 10 mM Mg, Tris pH 7.5”, the functional effect result is recorded as “active”.

For the sequence “AGGTTTACCGCAGCTGCCTCGCGCGTTTCGGTGATGACGGTGAAAACCTCTGACACATGCAGCTCCCGGAGACGGTCACAGC (double strand)”, the functional effect result (5mC at AGmCT, both strands at one site, one strand at other, Mg) was “active”.

With “AGGTTTACCGCAGCTGCCTCGCGCGTTTCGGTGATGACGGTGAAAACCTCTGACACATGCAGCTCCCGGAGACGGTCACAGC (double strand) [82-bp AluI duplex, one site fully methylated]”, the functional effect entry (5mC at one AGmCT site, both strands, Mg) was “not active”.

Consider “AGGTTTACCGCAGCTGCCTCGCGCGTTTCGGTGATGACGGTGAAAACCTCTGACACATGCAGCTCCCGGAGACGGTCACAGC (double strand) [82-bp AluI duplex, m5C in cis (hemimethylated)]”, for which the functional effect entry (5mC at AGmCT, both sites on one strand, Mg) is recorded as “active”.
